Measurements published in PubChem BioAssay (NCATS).
“And” between values parts separate entries of the source, which are not always exact repeats. Equal values may be shown once. Some of the results follow. The main result of the screen is listed elsewhere. These columns were measured beside it and carry no call. For part of these data: Most of these compounds were active or inconclusive in the main read-out, so they are no random draw. For part of these data: The note in brackets gives the kind of curve behind each potency; many fits are weak.

The chains behind the UniProt entries cited, without tags or fusion partners. Where a name states a change or a piece, a line headed by the entry shows the natural chain unless it says otherwise.
UniProt P40261: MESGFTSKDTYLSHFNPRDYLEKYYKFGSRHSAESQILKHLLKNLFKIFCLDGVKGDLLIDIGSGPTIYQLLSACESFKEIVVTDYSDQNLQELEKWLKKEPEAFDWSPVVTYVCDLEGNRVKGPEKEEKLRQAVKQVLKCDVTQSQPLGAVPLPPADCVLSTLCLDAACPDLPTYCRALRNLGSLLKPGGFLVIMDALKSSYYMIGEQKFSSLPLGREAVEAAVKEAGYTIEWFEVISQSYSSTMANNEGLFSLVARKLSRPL

Key:
[1] = Validation of Assay for Modulators of Lamin A Splicing (AID 1459); settings: Lamin A splicing dual RFP/GFP fluorescence reporter, ratio
Outline: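 Splicing correction read as GFP (500-530 nm) over DsRed2 (575-640 nm) object intensity after 48 h compound exposure of reporter HeLa S3 clones (600 cells/well, 2% FBS medium); ancitabine and cycloheximide titrations, 0.5% DMSO as vehicle.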

[2] = qHTS Assay for Lipid Storage Modulators (AID 1519); settings: Drosophila S3 cells, BODIPY lipid droplet/cell ratio, laser cytometry, cells loaded with oleic acid
Outline: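 Cells seeded at 5,000 per well were treated with compounds over a concentration series and loaded with oleic acid (400 uM, as added). Lipid droplet fluorescence (488 nm excitation, 500-530 nm channel) was read by laser-scanning cytometry and normalized to 20 uM Triacsin C.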

[3] = A High-Content qHTS Against Drug Library for the Identification of Small Molecules that Inhibit DYT1 Early Onset Primary Dystonia-Associated Cell Pathology (AID 1645839); settings: HEK293 Flp-In EGFP-delE TorsinA, punctate imaging, 48 h; measured here: cell count cytotoxicity
Outline: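 Flp-In T-REx 293 cells with tetracycline-inducible EGFP-delE hTOR1A (WT EGFP-hTOR1A as reference), 800 cells/well; compound added with tetracycline, 48 h at 37 C. Fixed, permeabilized cells imaged; %pathology (punctate TorsinA) primary, cell count counterscreen.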

[4] = qHTS Assay for Modulators of Human Peripheral Myelin Protein 22 (PMP22) Expression/Activity (AID 1967); settings: Cell-based PMP22 reporter, dual-color luciferase ratio
Outline: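 Readout is the corrected green/red luminescence ratio after 24 h compound exposure, normalised to untreated cells (0%). Engineered MSC80 mouse Schwann cells express green luciferase from the mouse Pmp22 promoter and red luciferase from EF-alpha as internal control.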

[5] = qHTS Validation Assay to Find Inhibitors of Chronic Active B-Cell Receptor Signaling (AID 485345); settings: ABC-DLBCL cells, chronic BCR signaling reporter
Outline: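 TMD8 ABC-DLBCL cells stably carrying doxycycline-inducible IkappaBalpha–green luciferase fusion plus unfused red luciferase; compounds 46 uM to 3 nM, 4 h at 37C with doxycycline. Corrected green/red luminescence ratio normalized to 10 uM MG-132 and basal cell wells; curves fitted.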

[6] = qHTS assay for small molecule antagonists of peroxisome proliferator-activated receptor delta signaling (AID 588535); settings: HEK293T PPARd-UAS-bla, beta-lactamase FRET ratio, 18 h; 460 nm channel;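 further: cells co-treated with a PPAR-delta agonist as stimulator during compound exposure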
Outline: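 Cells were seeded at 4000 per well in assay medium containing 2% charcoal/dextran FBS and held 5 hrs at 37 C. Compounds were then added for 18 hrs. CCF4 substrate was applied for 2 hrs at room temperature before fluorescence reading.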

[7] = qHTS assay for small molecule antagonists of peroxisome proliferator-activated receptor gamma signaling (AID 588537); settings: HEK293 PPARg-UAS-bla, beta-lactamase ratio, antagonist mode; measured here: W460 blue channel
Outline: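 Step one: plate 3000 HEK293 UAS-bla cells per well in medium with 1% stripped serum and hold 6-6.5 h at 37 C. Step two: add compound and 50 nM agonist for 16 h. Step three: CCF4 loading, fluorescence read.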

[8] = qHTS assay for small molecule agonists of retinoid X receptor alpha signaling (AID 588544); settings: HEK293T RXRa-UAS-bla, beta-lactamase reporter, 18 h; 530 nm emission
[9] = qHTS assay for small molecule antagonists of retinoid X receptor alpha signaling (AID 588546); settings: HEK293T RXRa-UAS-bla, beta-lactamase ratio, antagonist mode; measured here: W530 green channel, cytotoxicity proxy;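 further: cells stimulated with 9-cis-retinoic acid as agonist; on the % scale 0 is the no-effect control and ±100 the full control effect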
Outline: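 Beta-lactamase reporter inhibition, read as CCF4 fluorescence ratio (ex 405, em 460/530 nm) after 2 h at RT. HEK293T UAS-bla cells, 2500/well, were stimulated with 9-cis-RA at 500 or 100 nM final alongside test compound for 18 h at 37 C.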

[10] = qHTS drug screen for cell cycle checkpoint inhibitors in PARPi-resistant BRCA-mutant ovarian cancer cell lines. (AID 1963452); settings: PEO1/OlaR viability, CellTiter-Glo luminescence, 96 h
Outline: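 PEO1, PEO4 and PEO1/OlaR ovarian cancer cells, 600 per well, exposed 96 h at 37C to a dilution series. Viability read by CellTiter-Glo luminescence, normalized to DMSO and empty wells; activity summarized as Z-AUC.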

[11] = qHTS assay for small molecule antagonists of vitamin D receptor signaling (AID 588541); settings: HEK293T VDR-UAS-bla, beta-lactamase ratio, antagonist mode; measured here: W460 blue channel (cell viability)
[12] = S16 Schwann cell PMP22 intronic element beta-lactamase assay (AID 624044); settings: S16 rat Schwann cells, PMP22 element beta-lactamase FRET, 24 h
Outline: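 Rat S16 Schwann cells with beta-Lac driven by a PMP22 intronic element, compound-treated 24 h at 37 °C. LiveBLAzer FRET B/G read: 460 nm normalized to potassium clavulanate vs DMSO; 535 nm FRET as viability; concentration-effect curves classified.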

[13] = qHTS for identification of novel therapeutic agents for treatment of microphthalmiaassociated transcription factor (MiT) renal cell carcinoma (RCC) (AID 1963991); settings: CellTiter-Glo, 48 h; for z-score: stronger effect = lower value;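 on z-score: curves scaled with 100% = DMSO viability and 0% = empty wells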
Outline: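 UOK109/UOK124/UOK145 (TFE3 fusions, three partners); 500 cells/well; MIPE v4.0, 1912 cpds, 11 conc.; 48 h, 37 C; CellTiter-Glo, 15 min RT; lum. Norm.: DMSO 100%, empty 0%.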

[14] = molecular target: Nicotinamide N-methyltransferase (Homo sapiens) (UniProt P40261); assay: Confirmatory Screen for Target Class Profiling of Small Molecule Inhibitors of Methyltransferases (AID 1745852); settings: MTase-Glo luminescence, SAH detection, recombinant enzyme; measured here: NNMT inhibition potency
[15] = measured here: cell count channel max response
[16] = measured here: cell number channel AC50
[17] = measured here: lipid (BODIPY) channel AC50
[18] = measured here: lipid channel max response
[19] = measured here: green reporter channel AC50, mouse Pmp22 promoter in mouse Schwann cells
[20] = measured here: red reporter channel AC50, EF-alpha promoter control reporter in MSC80 mouse Schwann cells
[21] = measured here: CBG/CBR ratio read-out
[22] = measured here: CBR control luciferase (viability counter)
[23] = measured here: PEO1 parental viability

Which AC50 ([1]; measured here: GFP channel) does the source give for `CC(=O)OCC1=C(C(=O)O)N2C(=O)[C@@H](NC(=O)Cc3cccs3)[C@H]2SC1` here?
Its AC50 is 15.8 µM [rising, partial curve].

What about the AC50 ([1]; measured here: RFP channel) of the same compound?
Its AC50 is 35.5 µM [rising, single point].

What about the max response [2, 15] of the same compound?
The max response was 50.4%.

What about the AC50 [2, 16] of the same compound?
Its AC50 is 39.8 µM [rising, single point].

What about the AC50 [2, 17] of the same compound?
Its AC50 is 39.8 µM [rising, single point].

And the max response [2, 18]?
The max response was 54%.

What about the AC50 [3] of the same compound?
Its AC50 is 15.8 µM [rising, single point].

Which results are given for `CC/C(=C(\c1ccccc1)c1ccc(OCCN(C)C)cc1)c1ccccc1`?
AC50 ([1]; measured here: GFP channel): 35.5 µM [falling, single point]; AC50 ([1]; measured here: RFP channel): 25.1 µM [falling, partial curve]; max response [2, 15]: -23.7% and 49.3% and -95.7%; AC50 [2, 16]: 31.6 µM [rising, partial curve, poor fit] and 28.2 µM [falling, partial curve, poor fit]; AC50 [2, 17]: 14.1 µM [falling, single point] and 15.8 µM [rising, single point] and 31.6 µM [falling, partial curve, poor fit]; max response [2, 18]: -34.5% and 31.2% and -98.5%; AC50 [4, 19]: 33.8 µM [falling, full curve]; AC50 [4, 20]: 30.1 µM [falling, full curve, poor fit]; AC50 [5, 21]: 16.4 µM [falling, single point]; AC50 [5, 22]: 18.4 µM [falling, single point]; max response [6]: -40.1% and -39.7%; AC50 [7]: 70.8 µM [rising, single point]; max response [8]: -57% and -74.4%; max response [9]: -58.9% and -59.4%; AC50 [3]: 3.98 µM [falling, partial curve, poor fit]; AC50 [10, 23]: 4.47 µM [falling, full curve]; AC50 ([10]; measured here: PEO4 viability): 6.31 µM [falling, full curve, poor fit]

Which AC50 ([1]; measured here: GFP channel) does the source give for `O=C1CCC(c2ccc(-n3ccnc3)cc2)=NN1` here?
Its AC50 is 3.16 µM [rising, full curve].

What about the AC50 ([1]; measured here: RFP channel) of the same compound?
The AC50 was 3.55 µM [rising, partial curve].

What about the max response [2, 15] of the same compound?
Its max response is 39.4%.

What about the max response [2, 18] of the same compound?
The max response was 45.5%.

Which results are given for `O=C(Nc1cccc(C(=O)Nc2ccc(S(=O)(=O)O)c3cc(S(=O)(=O)O)cc(S(=O)(=O)O)c23)c1)Nc1cccc(C(=O)Nc2ccc(S(=O)(=O)O)c3cc(S(=O)(=O)O)cc(S(=O)(=O)O)c23)c1`?
AC50 ([1]; measured here: GFP channel): 5.62 µM [falling, single point]; AC50 ([1]; measured here: RFP channel): 5.62 µM [falling, single point]; max response [2, 15]: 40.8%; max response [2, 18]: 42.6%

What does the source list for `CC(C)(C)NCC(O)COc1cccc2[nH]c(=O)[nH]c12` (configuration not stated)?
AC50 ([1]; measured here: GFP channel): 35.5 µM [falling, single point]; AC50 ([1]; measured here: RFP channel): 35.5 µM [falling, single point]; max response [2, 15]: 50.5%; max response [2, 18]: 52.9%

Which AC50 ([1]; measured here: GFP channel) does the source give for `CCN(CC)C(=S)SSC(=S)N(CC)CC` here?
The AC50 was 0.158 µM [falling, full curve].

And the AC50 ([1]; measured here: RFP channel)?
The AC50 was 0.158 µM [falling, full curve].

What about the max response [2, 15] of the same compound?
The max response was -21.4% and 15.2%.

What about the AC50 [2, 16] of the same compound?
The AC50 was 10 µM [falling, partial curve, poor fit].

What about the AC50 [2, 17] of the same compound?
The AC50 was 39.8 µM [falling, single point] and 10 µM [falling, partial curve, poor fit].

And the max response [2, 18]?
The max response was -76.8% and 16.5%.

And the AC50 [4, 19]?
The AC50 was 1.69 µM [falling, full curve].

What about the AC50 [4, 20] of the same compound?
Its AC50 is 12 µM [falling, partial curve, poor fit].

What about the AC50 [5, 21] of the same compound?
The AC50 was 16.4 µM [falling, partial curve].

And the AC50 [5, 22]?
The AC50 was 5.17 µM [rising, full curve, poor fit].

What about the max response [6] of the same compound?
The max response was 16.6%.

And the AC50 [11]?
The AC50 was 50.1 µM [falling, single point].

What about the max response [9] of the same compound?
Its max response is -37.2%.

And the AC50 ([12]; measured here: 460 nm blue channel)?
Its AC50 is 28.2 µM [falling, partial curve, poor fit].

What about the AC50 ([12]; measured here: 530 nm viability channel) of the same compound?
Its AC50 is 28.2 µM [rising, single point].

What about the AC50 [3] of the same compound?
Its AC50 is 3.16 µM [falling, partial curve, poor fit].

And the AC50 [10, 23]?
Its AC50 is 19.5 µM [falling, single point].

And the AC50 ([10]; measured here: PEO4 viability)?
The AC50 was 27.5 µM [falling, single point].

What about the z-score ([13]; TFE3-RCC UOK109 viability, measured here: UOK109 Z-AUC) of the same compound?
The z-score was 0.151.

And the z-score ([13]; TFE3-RCC viability, measured here: UOK124 Z-AUC)?
Its z-score is -2.67.

What about the AC50 ([13]; TFE3-RCC viability, measured here: UOK124 cell viability) of the same compound?
Its AC50 is 0.00935 µM [falling, full curve, poor fit].

And the z-score ([13]; TFE3-RCC viability, measured here: UOK145 Z-AUC)?
The z-score was -0.39.

What about the AC50 ([13]; TFE3-RCC viability, measured here: UOK145 cell viability) of the same compound?
The AC50 was 5.9 µM [falling, partial curve, poor fit].

For `COc1ccc(NC(=O)/C=C/c2ccc(Cl)cc2)cc1`, which AC50 ([1]; measured here: GFP channel) is on record?
Its AC50 is 15.8 µM [rising, single point].

And the AC50 ([1]; measured here: RFP channel)?
Its AC50 is 15.8 µM [rising, single point].

And the max response [2, 15]?
Its max response is -12.9%.

What about the AC50 [2, 16] of the same compound?
Its AC50 is 7.94 µM [falling, full curve].

And the AC50 [2, 17]?
The AC50 was 7.94 µM [falling, full curve, poor fit].

What about the max response [2, 18] of the same compound?
Its max response is -10.1%.

What about the AC50 [4, 19] of the same compound?
The AC50 was 75.7 µM [falling, partial curve].

What about the AC50 [4, 20] of the same compound?
Its AC50 is 13.5 µM [falling, full curve].

And the AC50 [5, 21]?
The AC50 was 18.4 µM [falling, partial curve].

And the AC50 [5, 22]?
Its AC50 is 5.17 µM [falling, partial curve].

What about the IC50 [14] of the same compound?
The IC50 was 27.3 µM [falling, partial curve].

With `C[C@@H]1C(=O)NC2=Nc3cccc(Cl)c3CN21` as the compound, how does the AC50 ([1]; measured here: GFP channel) read?
The AC50 was 0.398 µM [rising, full curve].

What about the AC50 ([1]; measured here: RFP channel) of the same compound?
The AC50 was 0.398 µM [rising, full curve, poor fit].
